Laboratory results from patent US6365350B1, “Method of DNA sequencing” (The Institute of Physical and Chemical Research, priority 1997, dated 2002).

Assay: Fluorescence intensity and detection sensitivity of fluorescent dyes excited by argon laser
Type: physicochemical
Settings: excited by argon laser at 488 nm and 514 nm

**Q.** Which detection sensitivity does the source give for CCNc1cc2c(cc1C)C1(OC(=O)c3cc(C(=O)ON4C(=O)CCC4=O)ccc31)c1cc(C)c(NCC)cc1O2 [R6G, 5-carboxyrhodamine 6G succinimide ester] here?
**A.** Its detection sensitivity is “about 40 amol”.

**Q.** What about the “order of fluorescence intensities” value of the same compound?
**A.** The value was “R110, R6G>TMR>XR”.

**Q.** Which results are given for Nc1ccc2c(-c3cc(C(=O)ON4C(=O)CCC4=O)ccc3C(=O)O)c3ccc(N)cc3[o+]c2c1.O=C(O)C(F)(F)F.O=C([O-])C(F)(F)F [R110, 5-carboxyrhodamine 110-bis-trifluoroacetate succinimide ester]?
**A.** detection sensitivity: about 40 amol; order of fluorescence intensities: R110, R6G>TMR>XR

**Q.** Which detection sensitivity does the source give for CN(C)c1ccc2c(c1)Oc1cc(N(C)C)ccc1C21OC(=O)c2cc(C(=O)ON3C(=O)CCC3=O)ccc21 [TMR, 5-carboxytetramethylrhodamine succinimide ester] here?
**A.** The detection sensitivity was “about 400 amol”.

**Q.** And the “order of fluorescence intensities” value?
**A.** Its value is “R110, R6G>TMR>XR”.

**Q.** With O=C(ON1C(=O)CCC1=O)c1ccc(C2=c3cc4c5c(c3Oc3c2cc2c6c3CCCN6CCC2)CCC[N+]=5CCC4)c(C(=O)[O-])c1 [XR, 5-carboxy-X-rhodamine succinimide ester] as the compound, how does the detection sensitivity read?
**A.** The detection sensitivity was “about 800 amol”.

**Q.** What about the “order of fluorescence intensities” value of the same compound?
**A.** Its value is “R110, R6G>TMR>XR”.
